{"source": "paper PMC10710061", "binders": {"B1": {"name": "ZnF domain of Arabidopsis thaliana SPL5, residues 60 to 127 (domain or fragment, UniProt Q9S758 60-127)", "chain": "SRLCQVDRCTVNLTEAKQYYRRHRVCEVHAKASAATVAGVRQRFCQQCSRFHELPEFDEAKRSCRRRL"}}, "target": "SAP05 D66A (purified, for ITC) (Aster Yellows phytoplasma strain Witches Broom (AYWB))", "assay": "condition: 20 μM SAP05 mutant in the cell, 200 μM SPL5^ZnF from the syringe; ITC; SPL5^ZnF from the syringe (250 μM for wild-type SAP05, 200 μM for the SAP05–Rpn10^vWA complex or SAP05 mutants) into 20 μM partner in the cell; 25 °C, 20 mM HEPES pH 7.5, 150 mM NaCl; one-site binding model; both purified", "note": "These are yes or no findings as the source states them, for the method shown."}
{"binder": "B1", "values": [{"measurement": "binding", "result": "no binding"}]}
